# Assay results published in paper PMC3390395.
# Amino acid sequences for entries named in this document (tags omitted). Residues count along the entry.
# UniProt P26368, 2-475: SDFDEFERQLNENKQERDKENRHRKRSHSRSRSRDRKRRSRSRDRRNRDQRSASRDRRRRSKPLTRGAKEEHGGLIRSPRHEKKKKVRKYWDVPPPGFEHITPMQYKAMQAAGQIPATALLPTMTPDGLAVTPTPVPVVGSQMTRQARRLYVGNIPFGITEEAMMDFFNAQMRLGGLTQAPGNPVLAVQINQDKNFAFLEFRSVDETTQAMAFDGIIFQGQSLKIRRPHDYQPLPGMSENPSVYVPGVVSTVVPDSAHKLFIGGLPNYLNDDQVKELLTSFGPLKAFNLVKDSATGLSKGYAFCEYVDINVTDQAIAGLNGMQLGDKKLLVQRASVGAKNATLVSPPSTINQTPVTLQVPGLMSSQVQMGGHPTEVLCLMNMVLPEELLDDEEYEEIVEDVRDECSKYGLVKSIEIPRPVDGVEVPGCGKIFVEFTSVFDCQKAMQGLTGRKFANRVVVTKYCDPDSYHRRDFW
# Target: rU2AF65 (UniProt P26368)
# Test: EMSA
# Details: 1-3 ug rU2AF65, dose dependent; EMSA: 50 mM Hepes-KOH pH 7.6, 40 mM MgCl2, 20 mM spermidine, 0.1 mM DTT, 0.5 mM EDTA, 1.5 mM ATP, 20% glycerol, 0.4 ug/uL tRNA, room temperature; recombinant protein; residues 2-475; protein details: His (pPROEX HTb); probe letters rebuilt from the primers and the genome
sequence,measurement,value
GCUACAGUGUGAUCUAGAUGGGUAUGUAUUCAGGUAGAAUGUAUUACUCUUAUGCCUUUAAUUUGGGGGUGGGGGUUCUGGUUUUUUAUGUA [G2-G3~N-PU wild type probe],binding result,binds

# Construct, isoform or probe ends are uncertain for at least one entry.
